Several values for one entry are separate records, joined by “and”; a condition that tells them apart may be missing. Equal entries are not always repeated. Strings that start with PEPTIDE1 are HELM notation: dots part the residues, brackets hold end groups and non-standard residues.
Experiment: general procedure: Boc solid-phase peptide synthesis; PAM resin (t-Boc-Ser(Bzl)-OCH2 PAM); DCC symmetrical anhydrides; DCC/HOBT active esters
Details: whole synthesis; for final HPLC purity: analytical HPLC, Vydac C-4, UV absorbance at 215 nm; for final HPLC purity / crude yield: scale of the general procedure 0.5 mmol
[1] = trifluoroacetate salts after HPLC, acetate salts after anion exchange

PEPTIDE1{M.G.I.G.K.F.L.H.S.A.K.K.F.G.K.A.F.V.G.E.I.M.N.S}$$$$V2.0
final HPLC purity (hexatrifluoroacetate): greater than 95% pure

PEPTIDE1{G.I.G.K.F.L.F.S.A.K.K.F.G.K.A.F.V.G.E.I.M.N.S}$$$$V2.0
final HPLC purity [1]: >98%

PEPTIDE1{M.G.K.F.L.H.S.A.K.K.F.G.K.A.F.V.G.E.I.M.N.S}$$$$V2.0
final HPLC purity [1]: greater than 97% pure | crude yield [1]: 95% | crude mass [1]: 824 mg

PEPTIDE1{G.I.G.K.F.L.H.S.A.G.K.F.G.K.A.F.V.A.E.I.M.K.S}$$$$V2.0
final HPLC purity [1]: about 73% | crude mass (hydrofluoride): 285 mg | crude yield [1]: 66%

PEPTIDE1{G.I.G.K.F.L.H.S.A.H.K.F.G.K.A.F.V.G.E.I.M.N.S}$$$$V2.0
final HPLC purity [1]: greater than 98% pure | crude mass (scale 0.5 mmol, trifluoroacetate salts after HPLC, acetate salts after anion exchange): 432 mg | crude yield [1]: 82%

PEPTIDE1{G.K.F.L.H.S.A.G.K.F.G.K.A.F.V.G.E.I.M.K.S}$$$$V2.0
crude mass (hydrofluoride): 430 mg | crude yield [1]: 92%

PEPTIDE1{G.I.G.K.F.L.H.S.A.G.K.F.A.K.A.F.V.A.E.I.M.K.S}$$$$V2.0
final HPLC purity (trifluoroacetate salts after HPLC, acetate salts after anion exchange, run 1): 65% and >98% | crude mass (hydrofluoride): 259 mg | crude yield [1]: 72%

PEPTIDE1{G.I.G.K.F.L.H.T.A.K.K.F.G.K.A.F.V.G.E.I.M.N.S}$$$$V2.0
final HPLC purity [1]: >95%

PEPTIDE1{G.I.G.K.F.L.H.S.A.K.K.F.G.K.A.F.V.G.E.I.M}$$$$V2.0
final HPLC purity [1]: >94%

PEPTIDE1{G.I.G.K.F.L.H.E.A.K.K.F.G.K.A.F.V.G.E.I.M.N.S}$$$$V2.0
final HPLC purity [1]: >90%

PEPTIDE1{M.G.I.G.K.F.L.H.S.A.G.K.F.G.K.A.F.V.G.E.I.M.K.S}$$$$V2.0
final HPLC purity [1]: 66% | crude mass (hydrofluoride): 250 mg | crude yield [1]: 69%

PEPTIDE1{I.G.K.F.L.H.S.A.G.K.F.G.K.A.F.V.G.E.I.M.K.S}$$$$V2.0
final HPLC purity [1]: 48% | crude mass (hydrofluoride): 350 mg | crude yield [1]: 84%

PEPTIDE1{G.I.G.K.F.L.H.S.A.K.H.F.G.K.A.F.V.G.E.I.M.N.S}$$$$V2.0
final HPLC purity [1]: greater than 95% pure

PEPTIDE1{M.G.I.G.K.F.L.H.S.A.K.K.F.A.K.A.F.V.A.E.I.M.N.S}$$$$V2.0
final HPLC purity [1]: greater than 97% pure

PEPTIDE1{G.I.G.K.F.L.H.A.A.K.K.F.G.K.A.F.V.G.E.I.M.N.S}$$$$V2.0
final HPLC purity [1]: >95%

PEPTIDE1{G.I.G.K.F.L.K.S.A.K.K.F.G.K.A.F.V.G.E.I.M.N.S}$$$$V2.0
final HPLC purity [1]: >96%

PEPTIDE1{M.G.I.G.K.F.L.H.S.A.G.K.F.A.K.A.F.V.A.E.I.M.K.S}$$$$V2.0
final HPLC purity [1]: 67% | crude mass (hydrofluoride): 104 mg | crude yield [1]: 37%

[Arg^7 ]Mag 2-OH
final HPLC purity [1]: >96%

PEPTIDE1{G.I.G.K.F.L.H.S.A.H.H.F.G.K.A.F.V.G.E.I.M.N.S}$$$$V2.0
final HPLC purity [1]: greater than 95% pure | crude yield [1]: 71% | crude mass [1]: 320 mg

PEPTIDE1{G.I.G.K.F.L.H.S.A.K.K.F.G.K.A.F.V.G.E.I.M.N}$$$$V2.0
final HPLC purity [1]: >92%

Source: patent US5424395A (priority 1992, dated 1995)
